Results as given in the supplement of paper PMC6078165.

System: Hs578T
Test: relative JC-1 red fluorescence (viability) vs pre-drug, coculture with fibroblast (fraction); higher = more viable cancer cells
Procedure: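 JC-1 labelled TNBC cells cocultured 1:1 (1,500 cells each) with CellTrace Violet stained primary or stromal fibroblasts in 384-well plates in FluoroBrite medium, treated with one of 42 anticancer drugs at 0.1, 1, 10 or 100 uM. JC-1 red fluorescence (mitochondrial integrity in cancer cells only) was read by plate reader every 8 h for 72 h. Values are normalised to each well's pre-drug value. The stock of one drug was tenfold lower, so its dose labels may be too high.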

COc1cc([C@@H]2c3cc4c(cc3[C@@H](O[C@@H]3O[C@@H]5CO[C@@H](c6cccs6)O[C@H]5[C@H](O)[C@H]3O)[C@H]3COC(=O)[C@H]23)OCO4)cc(OC)c1O [Teniposide]
relative JC-1 red fluorescence
Settings	8 h	16 h	24 h	32 h	40 h	48 h	56 h	64 h	72 h
10 µM	0.865	0.807	0.782	0.7398	0.6882	0.661	0.649	0.628	0.639
100 µM	0.936	0.9	0.916	0.93	0.902	0.885	0.896	0.879	0.88

relative JC-1 red fluorescence
Settings	8 h	16 h	24 h	32 h	40 h	48 h	56 h	64 h	72 h
10 µM, coculture fibroblast: C12385	0.8635	0.803	0.799	0.727	0.649	0.623	0.593	0.584	0.577
10 µM, coculture fibroblast: H6013	0.923	0.936	0.935	0.913	0.85	0.819	0.81	0.785	0.766
10 µM, coculture fibroblast: H6019	0.806	0.749	0.779	0.7	0.657	0.636	0.632	0.631	0.622
10 µM, coculture fibroblast: H6076	0.96	0.917	0.886	0.853	0.757	0.748	0.705	0.689	0.685
10 µM, coculture fibroblast: H6231	0.92	0.866	0.831	0.789	0.702	0.662	0.629	0.624	0.627
10 µM, coculture fibroblast: HADF	0.894	0.9	0.864	0.824	0.784	0.753	0.725	0.709	0.672
10 µM, coculture fibroblast: HCFa	0.873	0.869	0.844	0.802	0.766	0.772	0.752	0.762	0.743
10 µM, coculture fibroblast: HCPF	0.927	0.883	0.862	0.809	0.742	0.704	0.686	0.659	0.643
10 µM, coculture fibroblast: HHSteC	0.89	0.841	0.799	0.732	0.64	0.593	0.562	0.549	0.52
10 µM, coculture fibroblast: HMF	0.897	0.845	0.81	0.805	0.728	0.69	0.661	0.64	0.629
10 µM, coculture fibroblast: HPFa	0.9324	0.907	0.872	0.8	0.72	0.674	0.635	0.61	0.576
10 µM, coculture fibroblast: HUF	0.8575	0.779	0.796	0.708	0.656	0.632	0.605	0.603	0.606
10 µM, coculture fibroblast: Hs27A	0.9208	0.917	0.907	0.867	0.801	0.79	0.742	0.727	0.685
10 µM, coculture fibroblast: Hs343T	0.9	0.819	0.785	0.758	0.692	0.663	0.63	0.618	0.619
10 µM, coculture fibroblast: WS1	0.807	0.775	0.79	0.704	0.662	0.665	0.649	0.659	0.658
100 µM, coculture fibroblast: C12385	0.921	0.917	0.9214	0.918	0.884	0.889	0.878	0.8783	0.863
100 µM, coculture fibroblast: H6013	0.947	0.736	0.794	0.809	0.845	0.766	0.872	0.845	0.938
100 µM, coculture fibroblast: H6019	0.898	0.849	0.793	0.821	0.791	0.869	0.815	0.815	0.799
100 µM, coculture fibroblast: H6076	0.722	0.778	0.747	0.7106	0.824	0.89	0.937	0.832	0.887
100 µM, coculture fibroblast: H6231	0.893	0.9449	0.95	0.943	0.923	0.945	0.937	0.9385	0.929
100 µM, coculture fibroblast: HADF	0.873	0.873	0.934	0.755	0.902	0.847	0.956	0.87	0.87
100 µM, coculture fibroblast: HCFa	0.872	0.816	0.794	0.778	0.936	0.798	0.948	0.927	0.919
100 µM, coculture fibroblast: HCPF	0.874	0.922	0.908	0.889	0.852	0.861	0.872	0.835	0.83
100 µM, coculture fibroblast: HHSteC	0.87	0.842	0.855	0.815	0.738	0.835	0.798	0.93	0.842
100 µM, coculture fibroblast: HMF	0.914	0.956	0.942	0.935	0.889	0.859	0.879	0.863	0.875
100 µM, coculture fibroblast: HPFa	0.906	0.842	0.926	0.9331	0.822	0.835	0.871	0.848	0.866
100 µM, coculture fibroblast: HUF	0.899	0.8364	0.8689	0.8	0.771	0.769	0.748	0.774	0.782
100 µM, coculture fibroblast: Hs27A	0.792	0.796	0.792	0.89	0.924	0.903	0.829	0.845	0.862
100 µM, coculture fibroblast: Hs343T	0.9761	0.933	0.942	0.952	0.905	0.881	0.857	0.842	0.85
100 µM, coculture fibroblast: WS1	0.858	0.804	0.851	0.8077	0.81	0.853	0.859	0.9	0.901

Values are relative to the signal before dosing, not to a vehicle control; the signal also falls without drug.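 Fibroblast labels denote human fibroblasts, mainly primary ones from uterus (C12385, HUF), lung (H6013), bone (Hs27A), adrenal (HADF) and skin (WS1), plus mammary HMF and breast cancer-associated Hs343T. Cancer cells are basal-like or mesenchymal-like triple-negative breast cancer lines. A hit is a response shift exceeding 3x replicate standard deviation. The tissue of the other fibroblasts is not given here.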
